# Assay results published in the supplement of paper PMC10849652.
# The chains behind the UniProt entries cited, without tags or fusion partners. Where a name states a change or a piece, a line headed by the entry shows the natural chain unless it says otherwise.
# UniProt P00156: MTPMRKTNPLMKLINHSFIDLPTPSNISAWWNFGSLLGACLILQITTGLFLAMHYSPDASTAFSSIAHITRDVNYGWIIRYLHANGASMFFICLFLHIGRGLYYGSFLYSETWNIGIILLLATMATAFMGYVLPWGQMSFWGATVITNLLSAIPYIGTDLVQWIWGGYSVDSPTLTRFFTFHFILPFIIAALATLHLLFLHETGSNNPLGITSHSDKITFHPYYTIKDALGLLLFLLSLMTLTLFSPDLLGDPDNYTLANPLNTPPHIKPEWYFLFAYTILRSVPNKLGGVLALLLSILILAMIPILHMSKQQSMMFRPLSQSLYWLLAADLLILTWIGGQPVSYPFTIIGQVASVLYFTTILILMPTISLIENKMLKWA
# UniProt Q765P7: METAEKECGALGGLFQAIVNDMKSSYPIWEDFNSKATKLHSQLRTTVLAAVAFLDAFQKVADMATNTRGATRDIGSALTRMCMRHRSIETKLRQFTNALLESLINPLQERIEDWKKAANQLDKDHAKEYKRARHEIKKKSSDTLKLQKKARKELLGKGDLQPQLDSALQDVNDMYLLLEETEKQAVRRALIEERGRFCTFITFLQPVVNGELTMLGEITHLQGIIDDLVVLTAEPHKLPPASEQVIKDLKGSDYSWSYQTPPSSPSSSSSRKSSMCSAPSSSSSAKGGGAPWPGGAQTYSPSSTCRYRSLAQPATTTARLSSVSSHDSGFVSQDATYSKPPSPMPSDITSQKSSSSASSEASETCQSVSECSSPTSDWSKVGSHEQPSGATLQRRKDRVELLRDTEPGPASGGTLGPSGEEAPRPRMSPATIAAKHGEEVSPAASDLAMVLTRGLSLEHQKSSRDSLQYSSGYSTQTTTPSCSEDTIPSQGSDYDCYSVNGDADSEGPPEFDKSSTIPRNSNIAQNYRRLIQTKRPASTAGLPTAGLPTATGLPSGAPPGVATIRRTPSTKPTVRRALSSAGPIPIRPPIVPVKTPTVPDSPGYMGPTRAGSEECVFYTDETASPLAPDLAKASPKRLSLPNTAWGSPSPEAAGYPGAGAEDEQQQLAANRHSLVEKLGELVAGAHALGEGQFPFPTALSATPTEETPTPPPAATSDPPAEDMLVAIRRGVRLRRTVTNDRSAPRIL
# UniProt Q96E11: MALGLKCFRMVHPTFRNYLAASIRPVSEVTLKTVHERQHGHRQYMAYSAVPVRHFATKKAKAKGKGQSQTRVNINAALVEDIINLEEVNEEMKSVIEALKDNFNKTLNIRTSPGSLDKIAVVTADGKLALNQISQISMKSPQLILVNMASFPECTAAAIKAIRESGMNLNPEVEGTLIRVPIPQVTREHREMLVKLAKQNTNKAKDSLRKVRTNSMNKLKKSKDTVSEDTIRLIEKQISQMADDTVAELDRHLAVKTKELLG
# UniProt P26038, whole entry, looked up: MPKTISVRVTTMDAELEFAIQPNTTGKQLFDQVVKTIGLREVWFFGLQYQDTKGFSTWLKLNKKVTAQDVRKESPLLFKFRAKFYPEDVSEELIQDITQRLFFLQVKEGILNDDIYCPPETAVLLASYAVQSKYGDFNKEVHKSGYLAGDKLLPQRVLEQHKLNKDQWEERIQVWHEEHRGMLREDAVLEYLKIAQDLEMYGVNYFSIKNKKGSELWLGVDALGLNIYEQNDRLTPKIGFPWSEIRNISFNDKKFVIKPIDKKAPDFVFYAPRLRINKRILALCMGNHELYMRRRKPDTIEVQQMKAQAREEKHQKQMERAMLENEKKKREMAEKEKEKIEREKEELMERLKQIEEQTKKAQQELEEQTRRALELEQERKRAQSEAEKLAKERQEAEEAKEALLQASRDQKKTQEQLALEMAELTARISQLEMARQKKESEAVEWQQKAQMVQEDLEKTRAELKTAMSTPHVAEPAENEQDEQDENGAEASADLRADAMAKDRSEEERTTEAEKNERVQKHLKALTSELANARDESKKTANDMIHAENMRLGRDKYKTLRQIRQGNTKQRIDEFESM
# UniProt Q9C0I1: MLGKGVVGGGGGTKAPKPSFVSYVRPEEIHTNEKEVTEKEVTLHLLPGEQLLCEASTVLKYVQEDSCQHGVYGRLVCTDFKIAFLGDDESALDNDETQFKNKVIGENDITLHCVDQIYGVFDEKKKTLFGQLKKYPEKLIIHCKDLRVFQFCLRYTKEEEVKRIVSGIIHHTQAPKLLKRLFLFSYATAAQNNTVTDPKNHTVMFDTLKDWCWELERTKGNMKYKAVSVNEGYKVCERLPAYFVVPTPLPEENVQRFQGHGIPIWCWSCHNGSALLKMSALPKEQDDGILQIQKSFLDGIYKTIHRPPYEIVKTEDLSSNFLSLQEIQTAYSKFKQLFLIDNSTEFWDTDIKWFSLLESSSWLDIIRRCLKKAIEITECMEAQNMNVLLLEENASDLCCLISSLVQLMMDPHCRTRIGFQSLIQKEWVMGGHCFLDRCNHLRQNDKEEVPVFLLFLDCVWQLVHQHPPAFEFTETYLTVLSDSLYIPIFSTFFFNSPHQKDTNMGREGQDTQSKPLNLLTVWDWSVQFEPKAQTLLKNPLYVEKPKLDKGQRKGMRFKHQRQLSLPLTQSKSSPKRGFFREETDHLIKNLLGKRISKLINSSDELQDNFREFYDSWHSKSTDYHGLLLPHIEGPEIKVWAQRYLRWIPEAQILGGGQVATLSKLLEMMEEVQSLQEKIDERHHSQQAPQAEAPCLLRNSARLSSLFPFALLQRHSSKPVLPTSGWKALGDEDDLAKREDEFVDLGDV
# UniProt Q9Y3D2: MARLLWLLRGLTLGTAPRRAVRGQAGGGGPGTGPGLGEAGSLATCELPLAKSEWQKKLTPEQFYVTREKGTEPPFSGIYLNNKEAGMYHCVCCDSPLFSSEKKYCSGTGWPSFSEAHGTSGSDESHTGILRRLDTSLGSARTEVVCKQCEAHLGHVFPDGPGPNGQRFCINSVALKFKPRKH
# UniProt Q96DH6: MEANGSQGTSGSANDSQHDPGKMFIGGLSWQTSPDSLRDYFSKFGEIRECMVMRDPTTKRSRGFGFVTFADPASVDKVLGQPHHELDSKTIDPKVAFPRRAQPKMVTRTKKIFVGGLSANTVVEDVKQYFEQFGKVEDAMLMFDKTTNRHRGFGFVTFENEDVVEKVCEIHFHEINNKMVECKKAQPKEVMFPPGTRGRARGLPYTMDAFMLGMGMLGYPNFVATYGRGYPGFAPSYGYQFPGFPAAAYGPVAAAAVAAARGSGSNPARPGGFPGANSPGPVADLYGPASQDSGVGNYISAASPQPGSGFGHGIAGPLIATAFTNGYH
# UniProt Q96DR8: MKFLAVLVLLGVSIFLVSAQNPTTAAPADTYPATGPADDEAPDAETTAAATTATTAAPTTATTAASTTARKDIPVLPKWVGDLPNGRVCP
# UniProt Q9UM54, whole entry, looked up: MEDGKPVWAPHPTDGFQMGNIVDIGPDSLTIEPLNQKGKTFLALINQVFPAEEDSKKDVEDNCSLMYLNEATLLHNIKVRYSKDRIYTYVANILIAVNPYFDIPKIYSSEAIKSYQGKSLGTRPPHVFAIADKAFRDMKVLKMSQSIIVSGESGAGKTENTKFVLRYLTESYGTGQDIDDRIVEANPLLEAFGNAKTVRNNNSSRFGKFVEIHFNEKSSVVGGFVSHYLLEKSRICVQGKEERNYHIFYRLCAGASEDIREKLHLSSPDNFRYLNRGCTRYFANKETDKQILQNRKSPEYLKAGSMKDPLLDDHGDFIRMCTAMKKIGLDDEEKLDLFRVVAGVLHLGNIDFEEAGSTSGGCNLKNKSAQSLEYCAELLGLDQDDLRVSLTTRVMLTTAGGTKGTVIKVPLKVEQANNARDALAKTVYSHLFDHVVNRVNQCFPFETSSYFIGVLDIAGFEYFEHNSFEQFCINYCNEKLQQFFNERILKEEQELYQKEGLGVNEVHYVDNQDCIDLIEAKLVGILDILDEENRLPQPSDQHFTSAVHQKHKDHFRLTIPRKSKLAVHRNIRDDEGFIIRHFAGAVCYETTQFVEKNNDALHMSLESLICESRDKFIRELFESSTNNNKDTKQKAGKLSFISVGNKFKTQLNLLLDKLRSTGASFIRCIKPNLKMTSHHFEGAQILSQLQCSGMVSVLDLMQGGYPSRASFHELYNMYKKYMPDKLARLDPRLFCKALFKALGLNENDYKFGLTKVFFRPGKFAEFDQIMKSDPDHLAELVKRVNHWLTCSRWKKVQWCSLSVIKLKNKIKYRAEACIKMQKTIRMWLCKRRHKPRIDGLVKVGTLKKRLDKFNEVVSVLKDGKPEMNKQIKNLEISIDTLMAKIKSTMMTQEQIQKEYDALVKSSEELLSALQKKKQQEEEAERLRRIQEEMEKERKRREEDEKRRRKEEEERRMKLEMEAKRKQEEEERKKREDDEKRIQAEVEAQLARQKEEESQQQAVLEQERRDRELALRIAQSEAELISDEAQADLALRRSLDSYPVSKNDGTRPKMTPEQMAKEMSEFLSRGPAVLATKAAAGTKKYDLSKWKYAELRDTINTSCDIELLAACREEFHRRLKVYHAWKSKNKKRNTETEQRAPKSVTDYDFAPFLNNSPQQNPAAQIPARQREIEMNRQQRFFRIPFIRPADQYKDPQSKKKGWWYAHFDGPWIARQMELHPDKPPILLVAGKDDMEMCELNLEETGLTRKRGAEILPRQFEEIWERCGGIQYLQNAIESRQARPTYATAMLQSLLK
# UniProt P35579, whole entry, looked up: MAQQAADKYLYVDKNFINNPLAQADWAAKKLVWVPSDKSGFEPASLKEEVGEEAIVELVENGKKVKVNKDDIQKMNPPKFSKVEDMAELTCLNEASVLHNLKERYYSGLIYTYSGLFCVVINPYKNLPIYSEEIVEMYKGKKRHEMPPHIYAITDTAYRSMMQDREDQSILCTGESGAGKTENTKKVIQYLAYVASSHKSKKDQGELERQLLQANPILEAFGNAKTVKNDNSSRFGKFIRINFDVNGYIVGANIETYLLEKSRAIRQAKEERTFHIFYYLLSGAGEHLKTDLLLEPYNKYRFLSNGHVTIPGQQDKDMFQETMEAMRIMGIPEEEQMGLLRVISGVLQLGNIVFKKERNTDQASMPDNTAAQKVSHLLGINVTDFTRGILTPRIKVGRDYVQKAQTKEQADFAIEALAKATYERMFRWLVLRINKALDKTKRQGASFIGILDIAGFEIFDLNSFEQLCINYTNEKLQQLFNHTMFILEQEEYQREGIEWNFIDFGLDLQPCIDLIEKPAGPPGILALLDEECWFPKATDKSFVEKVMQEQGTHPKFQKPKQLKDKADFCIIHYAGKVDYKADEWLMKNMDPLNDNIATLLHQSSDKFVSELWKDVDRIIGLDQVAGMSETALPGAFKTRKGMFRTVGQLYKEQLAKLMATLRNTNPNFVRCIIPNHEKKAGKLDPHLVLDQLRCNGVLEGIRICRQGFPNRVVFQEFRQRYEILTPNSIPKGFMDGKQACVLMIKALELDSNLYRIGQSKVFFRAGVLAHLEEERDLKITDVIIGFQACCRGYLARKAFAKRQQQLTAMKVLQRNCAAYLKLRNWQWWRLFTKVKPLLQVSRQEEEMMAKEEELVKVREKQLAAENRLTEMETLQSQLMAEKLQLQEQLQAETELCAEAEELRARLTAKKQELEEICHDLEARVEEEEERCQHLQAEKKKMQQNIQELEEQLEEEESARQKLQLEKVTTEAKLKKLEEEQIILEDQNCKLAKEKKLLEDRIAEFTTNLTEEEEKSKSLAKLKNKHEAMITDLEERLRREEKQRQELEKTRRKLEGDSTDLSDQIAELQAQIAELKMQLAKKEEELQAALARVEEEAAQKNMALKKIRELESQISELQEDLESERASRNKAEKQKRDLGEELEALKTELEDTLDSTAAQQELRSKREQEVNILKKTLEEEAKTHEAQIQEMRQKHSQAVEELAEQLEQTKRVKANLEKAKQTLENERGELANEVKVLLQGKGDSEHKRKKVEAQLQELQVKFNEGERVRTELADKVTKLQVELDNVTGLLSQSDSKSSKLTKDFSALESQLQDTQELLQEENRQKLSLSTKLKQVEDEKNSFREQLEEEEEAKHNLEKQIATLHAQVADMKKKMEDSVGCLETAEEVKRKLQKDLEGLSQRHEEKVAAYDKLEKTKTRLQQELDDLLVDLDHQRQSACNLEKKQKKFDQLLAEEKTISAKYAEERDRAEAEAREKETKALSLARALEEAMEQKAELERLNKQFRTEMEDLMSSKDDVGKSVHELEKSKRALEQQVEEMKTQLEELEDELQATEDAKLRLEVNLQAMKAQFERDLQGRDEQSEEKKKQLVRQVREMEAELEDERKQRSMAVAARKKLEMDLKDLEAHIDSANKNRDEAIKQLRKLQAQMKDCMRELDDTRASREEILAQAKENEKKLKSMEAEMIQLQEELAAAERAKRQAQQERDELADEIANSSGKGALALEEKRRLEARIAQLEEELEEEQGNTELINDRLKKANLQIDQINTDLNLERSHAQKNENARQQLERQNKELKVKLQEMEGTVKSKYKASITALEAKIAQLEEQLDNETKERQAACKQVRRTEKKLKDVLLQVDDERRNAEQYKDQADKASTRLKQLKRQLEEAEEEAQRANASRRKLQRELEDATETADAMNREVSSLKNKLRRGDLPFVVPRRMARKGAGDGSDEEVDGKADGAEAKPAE
# The other results are listed elsewhere or left out.
# Experiments:
# Test in all cases: log2 fold change, soluble protein after heating vs DMSO (PISA); higher = thermal stabilisation; K562 cells, 10 uM, 30 min; active = over 0.2 and 3.5 SD of the protein, either way, in both replicates (recomputed)
# [1] = compound: CS(=O)(=O)c1ccc(-c2cnc(N)c(C(=O)Nc3ccccc3)n2)cc1
# How it was run: (§1)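 Soluble protein was defined as the supernatant after 21,000xg for 90 min. It came from K562 cells at 2×10^6 cells/mL given 10 μM compound for 30 min, heated in aliquots for 3 min across 48°C-58°C, pooled, and extracted in PBS with 0.5% NP-40 at 4°C, and was quantified by TMTpro 16plex LC-MS/MS with equalised channel sums. Thermal stability against control samples, from duplicates, is reported as log2 fold change.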
# crizotinib = compound: C[C@@H](Oc1cc(-c2cnn(C3CCNCC3)c2)cnc1N)c1c(Cl)ccc(F)c1Cl [crizotinib]
# How it was run: as §1
# [2] = compound: C[C@@H]1COCCN1C2=NC(=NC(=C2)C3(CC3)S(=O)(=O)C)C4=C5C=CNC5=CC=C4
# How it was run: as §1
# [3] = compound: C[C@H](C1=CC=C(C=C1)C(=O)NC2=C3C=CNC3=NC=C2)N
# How it was run: as §1
# duvelisib = compound: C[C@H](Nc1ncnc2nc[nH]c12)c1cc2cccc(Cl)c2c(=O)n1-c1ccccc1 [duvelisib]
# How it was run: as §1
# gandotinib = compound: Cc1cc(Nc2cc(CN3CCOCC3)c3nc(C)c(Cc4ccc(Cl)cc4F)n3n2)n[nH]1 [gandotinib]
# How it was run: as §1
# tozasertib = compound: Cc1cc(Nc2cc(N3CCN(C)CC3)nc(Sc3ccc(NC(=O)C4CC4)cc3)n2)n[nH]1 [tozasertib]
# How it was run: as §1
# [4] = compound: Cc1cc(SCc2sc(-c3ccc(C(F)(F)F)cc3)nc2C)ccc1OCC(=O)O
# How it was run: as §1
# doramapimod = compound: Cc1ccc(-n2nc(C(C)(C)C)cc2NC(=O)Nc2ccc(OCCN3CCOCC3)c3ccccc23)cc1 [doramapimod]
# How it was run: as §1
# ispinesib = compound: Cc1ccc(C(=O)N(CCCN)[C@@H](c2nc3cc(Cl)ccc3c(=O)n2Cc2ccccc2)C(C)C)cc1 [ispinesib]
# How it was run: as §1
Target,log2 fold change [1],log2 fold change (crizotinib),log2 fold change [2],log2 fold change [3],log2 fold change (duvelisib),log2 fold change (gandotinib),log2 fold change (tozasertib),log2 fold change [4],log2 fold change (doramapimod),log2 fold change (ispinesib)
MYO1D (UniProt O94832),inactive: 0.057,inactive: -0.06,inactive: -0.185,inactive: 0.258,inactive: -0.162,inactive: 0.088,inactive: 0.002,inactive: -0.014,inactive: 0.152,inactive: -0.156
MYCBP (UniProt Q99417),inactive: -0.002,inactive: 0.096,inactive: 0.07,inactive: -0.022,inactive: 0.04,inactive: 0.028,inactive: -0.006,inactive: -0.049,inactive: -0.021,inactive: -0.066
MRTFA (UniProt Q969V6),inactive: 0.046,inactive: -0.203,inactive: 0.103,inactive: -0.006,inactive: 0.06,inactive: 0.021,inactive: 0.064,inactive: 0.033,inactive: 0.017,inactive: 0.084
MRPS34 (UniProt P82930),inactive: 0.032,inactive: -0.059,inactive: -0.009,inactive: 0.148,inactive: 0.002,inactive: -0.034,inactive: 0.034,inactive: 0.097,inactive: 0.064,inactive: -0.183
MYO18A (UniProt Q92614),inactive: 0.044,inactive: 0.022,inactive: -0.051,inactive: 0.177,inactive: -0.052,inactive: -0.008,inactive: -0.039,inactive: 0.027,inactive: 0.078,inactive: -0.103
"MUC1, A0A087WWM1",inactive: 0.045,inactive: 0.051,inactive: -0.01,inactive: -0.15,inactive: 0.165,inactive: 0.055,inactive: -0.041,inactive: -0.151,inactive: 0.004,inactive: 0.088
MTDH (UniProt Q86UE4),inactive: -0.164,inactive: 0.031,inactive: -0.53,inactive: 0.314,inactive: -0.125,inactive: 0.347,inactive: -0.013,inactive: -0.016,inactive: 0.228,inactive: -0.24
MRTFB isoform 5 (UniProt Q9ULH7),inactive: 0.017,inactive: -0.046,inactive: 0.06,inactive: -0.004,inactive: 0.068,inactive: -0.012,inactive: 0.001,inactive: -0.05,inactive: -0.037,inactive: -0.013
MRPS9 (UniProt P82933),inactive: -0.001,inactive: 0.011,inactive: 0.036,inactive: 0.202,–,inactive: -0.054,–,inactive: 0.086,inactive: 0.031,active: -0.344
MTPAP (UniProt Q9NVV4),inactive: -0.003,inactive: 0.058,inactive: -0.133,inactive: 0.174,inactive: -0.096,inactive: 0.024,inactive: 0.005,inactive: 0.011,inactive: 0.058,inactive: -0.26
MT-ND4 (UniProt P03905),inactive: -0.107,inactive: 0.008,inactive: 0.052,inactive: -0.148,–,inactive: -0.104,–,inactive: -0.066,inactive: 0,inactive: 0.118
MT-CYB (UniProt P00156),inactive: 0.026,inactive: -0.061,inactive: 0.078,inactive: -0.12,inactive: 0.196,inactive: -0.145,inactive: 0.028,inactive: 0.014,inactive: -0.003,inactive: -0.025
MTFR2 (UniProt Q6P444),inactive: 0.059,inactive: -0.107,inactive: 0,inactive: -0.058,inactive: -0.072,–,inactive: 0.013,inactive: -0.034,inactive: -0.034,inactive: -0.1
MTERF4 (UniProt Q7Z6M4),inactive: 0.03,inactive: 0.094,inactive: 0.18,inactive: 0.034,inactive: -0.177,–,inactive: -0.005,inactive: 0.12,inactive: 0.043,inactive: 0.301
MTSS2 (UniProt Q765P7),inactive: 0.026,inactive: -0.044,inactive: 0.015,inactive: 0.004,inactive: -0.014,inactive: -0.127,inactive: -0.081,inactive: -0.031,inactive: 0.117,inactive: 0.032
MTR (UniProt Q99707),inactive: 0.063,inactive: -0.079,inactive: -0.095,inactive: 0.227,inactive: -0.051,inactive: -0.018,inactive: 0.027,inactive: 0.067,inactive: 0.116,inactive: -0.094

Target,log2 fold change [1],log2 fold change (crizotinib),log2 fold change [2],log2 fold change [3],log2 fold change (duvelisib),log2 fold change (gandotinib),log2 fold change (tozasertib),log2 fold change [4],log2 fold change (doramapimod),log2 fold change (ispinesib)
MSMO1 (UniProt Q15800),inactive: 0.043,inactive: -0.045,inactive: -0.002,inactive: -0.074,inactive: 0.003,inactive: -0.18,inactive: -0.007,inactive: -0.036,inactive: -0.061,inactive: -0.076
MRRF (UniProt Q96E11),inactive: 0.009,inactive: 0.101,inactive: 0.102,inactive: 0.01,inactive: -0.026,inactive: 0.014,inactive: 0.036,inactive: -0.054,inactive: 0.008,inactive: 0.11
MSN (UniProt P26038),inactive: -0.015,inactive: 0.049,inactive: 0.037,inactive: -0.06,inactive: -0.006,inactive: -0.028,inactive: 0.027,inactive: 0.003,inactive: -0.001,inactive: 0.081
MRPS7 (UniProt Q9Y2R9),inactive: 0.014,inactive: -0.015,inactive: -0.009,inactive: 0.124,inactive: 0.011,inactive: 0.055,inactive: -0.025,inactive: 0.001,inactive: 0.034,inactive: -0.257
MRPS14 (UniProt O60783),inactive: -0.025,inactive: -0.14,inactive: -0.052,inactive: 0.121,inactive: -0.038,inactive: -0.189,inactive: -0.087,inactive: 0.117,inactive: 0.109,inactive: -0.14
MTHFD1 (UniProt P11586),inactive: 0.101,inactive: -0.15,inactive: 0.107,inactive: -0.003,–,inactive: -0.077,–,inactive: 0.054,inactive: -0.053,inactive: -0.021
MTMR12 (UniProt Q9C0I1),inactive: 0.006,inactive: 0.001,inactive: 0.022,inactive: -0.025,inactive: 0.089,inactive: -0.043,inactive: 0.006,inactive: -0.056,inactive: -0.013,inactive: 0.067
MYDGF (UniProt Q969H8),inactive: 0.011,inactive: 0.113,inactive: -0.038,inactive: -0.074,inactive: -0.041,inactive: 0.042,inactive: -0.025,inactive: -0.017,inactive: -0.029,inactive: 0.038
MSRB2 (UniProt Q9Y3D2),inactive: 0.016,inactive: 0.079,inactive: -0.059,inactive: 0.1,inactive: 0.092,inactive: 0.124,inactive: -0.172,inactive: -0.006,inactive: -0.038,inactive: 0.026
MSI2 (UniProt Q96DH6),inactive: 0.01,inactive: -0.018,inactive: -0.111,inactive: 0.131,inactive: 0,inactive: 0.026,inactive: -0.045,inactive: -0.051,inactive: 0.017,inactive: -0.141
MUCL1 (UniProt Q96DR8),inactive: -0.328,inactive: 0.604,inactive: 0.06,inactive: -0.022,inactive: 0.241,inactive: 0.468,inactive: 0.154,inactive: -0.029,inactive: -0.368,inactive: 0.309
MRPS17 (UniProt Q9Y2R5),inactive: 0.038,inactive: 0.034,inactive: 0.097,inactive: 0.076,–,inactive: -0.06,–,inactive: 0.166,inactive: 0.033,active: -0.345
MTMR2 (UniProt Q13614),inactive: -0.023,inactive: -0.001,inactive: -0.045,inactive: -0.008,inactive: 0.028,inactive: 0.039,inactive: -0.017,inactive: -0.041,inactive: 0.042,inactive: 0.064
MYO6 isoform 6 (UniProt Q9UM54),inactive: 0.013,inactive: 0.044,inactive: 0.064,inactive: -0.042,inactive: 0.07,inactive: -0.037,inactive: -0.066,inactive: -0.045,inactive: 0.048,inactive: 0.038
MYH9 (UniProt P35579),inactive: -0.03,inactive: -0.031,inactive: 0.055,inactive: -0.107,inactive: -0.021,inactive: -0.114,inactive: 0.019,inactive: 0.002,inactive: 0.039,inactive: 0.078

# Random excerpt: two records from the list, in no set order.
Target,log2 fold change [1],log2 fold change (crizotinib),log2 fold change [2],log2 fold change [3],log2 fold change (duvelisib),log2 fold change (gandotinib),log2 fold change (tozasertib),log2 fold change [4],log2 fold change (doramapimod),log2 fold change (ispinesib)
MUCL1 (UniProt Q96DR8),inactive: -0.328,inactive: 0.604,inactive: 0.06,inactive: -0.022,inactive: 0.241,inactive: 0.468,inactive: 0.154,inactive: -0.029,inactive: -0.368,inactive: 0.309
MRPS17 (UniProt Q9Y2R5),inactive: 0.038,inactive: 0.034,inactive: 0.097,inactive: 0.076,–,inactive: -0.06,–,inactive: 0.166,inactive: 0.033,active: -0.345
